Results are given in words; binding and its absence hold for the method and conditions named. Binding seen in cells or lysates may run through a third protein. These calls come from enrichment with a bait or labelling near it, and not all partners need be listed. Sequences can lack the tags named with a protein.
Molecular target: T1, GDAP1 tagged with an Avi-tag (Avi-HA-tagged GDAP1; ganglioside-induced differentiation-associated protein 1), biotinylated by BirA (UniProt Q8TB36)
T1 sequence (chain, biotin on the AviTag (biotinylated by BirA in the cells)): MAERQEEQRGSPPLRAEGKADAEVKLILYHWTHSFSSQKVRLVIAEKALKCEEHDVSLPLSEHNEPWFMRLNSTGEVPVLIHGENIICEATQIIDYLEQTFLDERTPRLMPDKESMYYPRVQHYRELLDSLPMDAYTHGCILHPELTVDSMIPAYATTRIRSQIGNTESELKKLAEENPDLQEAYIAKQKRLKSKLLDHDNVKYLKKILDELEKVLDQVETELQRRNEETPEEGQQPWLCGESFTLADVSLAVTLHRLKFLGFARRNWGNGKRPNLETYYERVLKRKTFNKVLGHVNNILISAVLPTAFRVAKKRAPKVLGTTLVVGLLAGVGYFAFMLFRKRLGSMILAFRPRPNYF
Assay: affinity purification with mass spectrometry; biotinylated Avi-HA-GDAP1 captured on Dynabeads MyOne Streptavidin T1 (45 min, RT) from RIPA lysates of AAV-transduced primary cortical neurons of BirA mice; lysates used directly or incubated with 5 mM GSH or GSSG for 30 min at 37 °C; HA-GDAP1-transduced cultures as control; label-free quantitative LC-MS

Chains of the proteins cited; added tags and fusions are not shown.
UniProt P18760: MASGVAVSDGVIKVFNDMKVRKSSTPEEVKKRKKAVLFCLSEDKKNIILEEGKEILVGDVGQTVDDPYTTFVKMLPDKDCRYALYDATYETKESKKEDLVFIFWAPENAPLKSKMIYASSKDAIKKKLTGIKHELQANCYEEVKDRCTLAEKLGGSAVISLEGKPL

Cofilin-1 (from UniProt P18760 1-166) was tested, and the binding was “binds”.
